Data reported in PubChem BioAssay AID2685 (National Center for Advancing Translational Sciences (NCATS), 2010).
This is one part of the list. The main result of the screen is listed elsewhere. These columns were measured beside it and carry no call. Most of these compounds were active or inconclusive in the main read-out, so they are no random draw. Words in brackets tell the shape of the fitted curve; partial curves, single points and poor fits give uncertain potencies.

Experiment: qHTS Assay for Lipid Storage Modulators in Drosophila S3 Cells;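 for cell number change: cells counted by Cell Tracker Red CMTPX staining in the red channel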
Conditions: BODIPY lipid droplet fluorescence, 18-24 h; for cell number change: measured here: cell count max response, cells fed with added oleic acid
Method in brief: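 Drosophila S3 cells loaded with oleic acid (400 uM, as added) and compounds at several concentrations; lipid droplets imaged by 488-nm laser-scanning cytometry, 500–530 nm intensity and object ratio to cell channel. Percent activity normalized to 20 uM Triacsin C.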

[1] = measured here: lipid fluorescence (Fed channel) AC50, cells fed with added oleic acid
[2] = measured here: cell number channel AC50, cells fed with added oleic acid

SMILES	cell number change [%]	AC50 [1]	AC50 [2]
CN(C)CCCNC1CS(=O)(=O)CC1O (stereo not given)	30.3		
O=S(=O)(c1cccc(NC(=S)N2CCN(c3ccc(F)cc3)CC2)c1)C(F)F	19.1	0.164 µM [rising, full curve, poor fit]	
CCOC(=O)NC(=O)/C(C#N)=C\Nc1sccc1C(=O)OC			0.58 µM [falling, single point]
COC(=O)c1c(NC(=O)c2ccco2)sc(C(=O)Nc2ccc(F)cc2)c1C	6.7	0.146 µM [rising, full curve, poor fit]	
Cc1ccc2nc(C3CCN(C(=O)c4ccco4)CC3)[nH]c2c1	13.8	5.17 µM [rising, partial curve]	
Cc1cc(NC(=O)Cn2c(=O)oc3ccc(Cl)cc32)no1	35.1	29.1 µM [rising, single point]	29.1 µM [rising, single point]
CC1(C)CC(=O)N(CC(=O)NCc2ccc(F)cc2)c2ccccc2S1(=O)=O	-6.59		
COc1ccc(C)cc1NC(=O)C1CCN(S(=O)(=O)c2ccc3c(c2)NC(=O)CO3)CC1	13.3	4.11 µM [falling, full curve]	
Cc1ccc(-c2nc(=S)c3c(n2Cc2cccnc2)CC(C)(C)OC3)cc1	17.7		2.31 µM [rising, single point]
CSCCC(NC(=O)c1ccc(C(C)(C)C)cc1)C(=O)OCC(=O)N1CCCC1=O (stereo not given)	3.82	6.51 µM [falling, partial curve, poor fit]	6.51 µM [falling, partial curve, poor fit]
CCOC(=O)c1cc(-c2cccnc2)nn1-c1ccccn1		1.3 µM [rising, partial curve]	2.31 µM [rising, partial curve, poor fit]
COc1ccc(C(=O)NCCNC(=O)c2cnccn2)cc1	13.2	5.62 µM [falling, single point]	
O=C(CSc1cccc[n+]1[O-])Nc1cccc(S(=O)(=O)NC2=NCCCCC2)c1	17.3		
COc1ccc(C)cc1NC(=O)NCc1ccccn1	16.8	16.4 µM [rising, single point]	
CS(=O)(=O)N(CC(=O)Nc1cccc(Cl)c1Cl)c1ccccc1	47.1		8.2 µM [rising, partial curve]
O=C1C2C3C=CC(C4CC34)C2C(=O)N1/N=C/c1ccc(-c2ccccc2[N+](=O)[O-])o1 (stereo not given)	-11.5	2.31 µM [rising, partial curve]	
CCOC(=O)c1[nH]c2ccc(OC)cc2c1NC(=O)c1ccccc1C(=O)O	-13.9		0.13 µM [falling, full curve, poor fit]
O=C(NC(=S)N1CCN(C/C=C/c2ccccc2)CC1)c1ccco1	-17.2	20.6 µM [falling, single point]	
Cc1cc(F)ccc1S(=O)(=O)Nc1ccc(C(=O)N2CCCCCC2)cc1	-26.9	20.6 µM [falling, single point]	0.146 µM [falling, full curve, poor fit]
O=C(NCc1ccco1)c1cnccn1	9.39		0.116 µM [rising, full curve, poor fit]
O=C(N=Nc1c(O)[nH]c2ccc(Br)cc12)c1cc(-c2cccc3ccccc23)n[nH]1	-66.7		29.1 µM [falling, single point]

Individual results from the entries so far:
Entry of `CN(C)CCCNC1CS(=O)(=O)CC1O` (stereo not given) under cell number change [%]: 30.3
Entry of `COc1ccc(C)cc1NC(=O)C1CCN(S(=O)(=O)c2ccc3c(c2)NC(=O)CO3)CC1` under AC50 [1]: 4.11 µM [falling, full curve]

Following part

SMILES	cell number change [%]	AC50 [1]	AC50 [2]
CCOc1ncccc1C(=O)NCc1ccc(OC)cc1	98.6	6.51 µM [rising, single point]	14.6 µM [rising, partial curve]
O=C(NC1CCCC1)C1CCN(C(=O)Nc2cccc(Cl)c2)CC1	7.26	0.58 µM [falling, single point]	
C=CCn1c(NCCOC)nc2c1c(=O)n(C)c(=O)n2C	4.04		
CN(C)C(=S)Oc1ccccc1-c1ccccc1OC(=S)N(C)C	12.3	29.1 µM [rising, single point]	
Cc1c(CCC(=O)O)c(=O)oc2cc(O)ccc12	4.91		
CCN(CC)CCCNC(=O)c1[nH]c2ccccc2c1Sc1ccc(Cl)cc1	-23.6	29.1 µM [rising, single point]	
COc1ccccc1CNC(=O)CN(Cc1ccc(Cl)cc1)S(C)(=O)=O	-15.1		
CCCC(C)NC(=O)CN(Cc1ccco1)S(=O)(=O)c1ccccc1 (stereo not given)	-18.5	29.1 µM [falling, single point]	
COc1cc(C)c(S(=O)(=O)NCc2ccc3c(c2)OCO3)cc1C	93.5	2.06 µM [rising, full curve]	2.31 µM [rising, full curve]
Cc1ccc(-n2nc(C)c(Sc3ccccc3[N+](=O)[O-])c2N)cc1	18.6	29.1 µM [rising, single point]	
N#Cc1ccc(CNc2cnccn2)cc1	-21		0.00461 µM [rising, full curve, poor fit]
Cc1cc(C)cc(NC(=O)CCC(=O)N2CCSc3ccccc32)c1	18.7		
O=C(CN1CCN(Cc2ccccc2Cl)C1=O)NC1CCCCCC1	3.88	3.26 µM [rising, single point]	
CCCc1nn(C)c2c(=O)[nH]c(-c3ccccc3OCC)nc12	-6.27	0.13 µM [rising, full curve, poor fit]	
O=C(CCc1c[nH]c2ccccc12)NC1CC1	16.2	0.651 µM [falling, single point]	
O=C(NC(=S)Nc1ccccc1Br)C1CCC1	-23.8	1.64 µM [rising, partial curve]	
N=c1c2c(n(Cc3cccc(Cl)c3)c3c1CCC3)CCCC2	-67.4	29.1 µM [falling, single point]	20.6 µM [falling, single point]
COc1ccc(CN2CCCC(C(=O)N3CCCC3)C2)c(OC)c1 (stereo not given)	16.6	1.3 µM [falling, partial curve]	
COC(=O)CNC(=O)COc1ccccc1		29.1 µM [falling, partial curve]	
COc1ccc(Nc2ncnc3c2cnn3-c2ccccc2)cc1OC	-5.03	0.0651 µM [rising, full curve, poor fit]	
Cc1nn(C(C)C(=O)N2CCN(c3ccccn3)CC2)c(=O)c2cc3occc3n12 (stereo not given)	-6.5		

Of the compounds above, these have a Cl atom:
SMILES	cell number change [%]	AC50 [1]	AC50 [2]
Cc1cc(NC(=O)Cn2c(=O)oc3ccc(Cl)cc32)no1	35.1	29.1 µM [rising, single point]	29.1 µM [rising, single point]
CS(=O)(=O)N(CC(=O)Nc1cccc(Cl)c1Cl)c1ccccc1	47.1		8.2 µM [rising, partial curve]
O=C(NC1CCCC1)C1CCN(C(=O)Nc2cccc(Cl)c2)CC1	7.26	0.58 µM [falling, single point]	
CCN(CC)CCCNC(=O)c1[nH]c2ccccc2c1Sc1ccc(Cl)cc1	-23.6	29.1 µM [rising, single point]	
COc1ccccc1CNC(=O)CN(Cc1ccc(Cl)cc1)S(C)(=O)=O	-15.1		
O=C(CN1CCN(Cc2ccccc2Cl)C1=O)NC1CCCCCC1	3.88	3.26 µM [rising, single point]	
N=c1c2c(n(Cc3cccc(Cl)c3)c3c1CCC3)CCCC2	-67.4	29.1 µM [falling, single point]	20.6 µM [falling, single point]

Carrying on:

SMILES	cell number change [%]	AC50 [1]	AC50 [2]
Cc1ccccc1NC(=O)CSc1nc2cc3c(cc2cc1C)CCC3	5.46		
O=C(c1ccc2nc3ccccc3c(=O)n2c1)N1CCN(Cc2ccc3c(c2)OCO3)CC1	-14.4	29.1 µM [rising, single point]	
c1ccc2c(c1)CC1(CCCC1)n1nnnc1-2	-14.2	0.00517 µM [falling, full curve, poor fit]	
CCN(C(=O)c1cc(S(=O)(=O)N2CCc3ccccc32)cn1C)c1ccccc1	-5.19	2.91 µM [falling, partial curve, poor fit]	
CN(C)c1ccc(C(=O)N(Cc2ccccc2)Cc2ccccc2)cc1	4.4	32.6 µM [rising, single point]	
COc1ccc(OC)c(S(=O)(=O)Nc2ccccc2F)c1	-124	0.0517 µM [falling, full curve, poor fit]	32.6 µM [falling, partial curve]
CSc1nnc(SCC(=O)NC(=O)c2ccccc2)s1	2.5		
O=C(COC(=O)CSc1ccc(Cl)cc1)NCCc1ccccc1			0.461 µM [rising, single point]
Cc1cc(C)nc(N2CCC(C(=O)NCCc3ccccc3)CC2)n1	70.1	14.6 µM [rising, partial curve]	11.6 µM [rising, partial curve, poor fit]
Cc1cccc(C)c1NC(=O)COC(=O)COc1ccc2c(C)cc(=O)oc2c1	11.3	9.2 µM [rising, partial curve, poor fit]	
COCCC(=O)N1CCC(Oc2ccc(C(=O)NCCSC)cc2)CC1	-0.787	8.2 µM [rising, partial curve]	
Cc1cc(C)n(CC(=O)NNC(=O)C2CC(=O)N(Cc3ccccc3Cl)C2)n1 (stereo not given)	10.9		
COc1cc(OC)cc(C(=O)N[C@H](C(=O)OCc2cc(=O)oc3cc(C)ccc23)C(C)C)c1	1.57		1.16 µM [rising, single point]
COc1ccc(N(C(=O)c2cnsn2)C(C(=O)NC2CCCCC2)c2ccncc2)cc1 (stereo not given)	1.96	0.731 µM [falling, full curve]	
O=S1(=O)CCN2C=Nc3sc4c(c3C2=N1)CCCC4	-10.3	14.6 µM [falling, single point]	7.31 µM [falling, single point]
CC(=O)c1ccc(NC(=O)c2ccccc2Sc2ncnc3sc(C)c(C)c23)cc1	38.4		14.6 µM [rising, partial curve]
COc1ccc(C(=O)Nc2nc(-c3ccc(S(=O)(=O)N4CCOCC4)cc3)cs2)cc1	10.7	23.1 µM [rising, partial curve]	
Cc1ccc(N2C(=O)C(CN3CCCC3)C2c2ccccc2)cc1 (stereo not given)	-7.64	16.4 µM [falling, single point]	
C=CCc1cccc2cc(NC(C)=O)c(=O)oc12	14.6	2.91 µM [rising, single point]	
O=C(NCCCn1ccnc1)/C(=C\c1ccco1)NC(=O)c1ccco1	50	0.164 µM [rising, full curve]	0.184 µM [rising, full curve, poor fit]
